# Primary screen of a compound library

The chains behind the UniProt entries cited, without tags or fusion partners.
UniProt E9BF75, entry or part of it: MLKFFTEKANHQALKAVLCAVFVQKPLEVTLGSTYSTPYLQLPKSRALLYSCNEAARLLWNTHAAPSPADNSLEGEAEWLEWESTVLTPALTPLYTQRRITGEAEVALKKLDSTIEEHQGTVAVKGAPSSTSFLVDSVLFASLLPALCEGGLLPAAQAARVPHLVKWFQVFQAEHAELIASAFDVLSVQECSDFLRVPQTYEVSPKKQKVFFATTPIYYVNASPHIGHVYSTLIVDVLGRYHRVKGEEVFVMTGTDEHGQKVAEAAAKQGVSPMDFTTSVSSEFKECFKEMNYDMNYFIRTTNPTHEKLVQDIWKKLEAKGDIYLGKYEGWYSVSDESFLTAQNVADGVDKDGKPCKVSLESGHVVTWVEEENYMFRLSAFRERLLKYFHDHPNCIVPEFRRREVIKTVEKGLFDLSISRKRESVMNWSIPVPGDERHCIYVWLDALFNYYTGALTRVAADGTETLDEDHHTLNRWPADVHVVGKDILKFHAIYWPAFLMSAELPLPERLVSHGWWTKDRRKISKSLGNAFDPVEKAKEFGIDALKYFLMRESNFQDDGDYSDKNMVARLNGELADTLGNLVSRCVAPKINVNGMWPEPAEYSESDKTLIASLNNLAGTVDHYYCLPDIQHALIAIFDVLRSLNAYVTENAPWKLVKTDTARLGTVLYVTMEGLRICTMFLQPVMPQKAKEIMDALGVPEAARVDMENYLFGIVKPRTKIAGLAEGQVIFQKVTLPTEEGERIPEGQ

Source: ChEMBL document CHEMBL3988442, “University of Dundee, Small-Polar-MMV Screening Library” (2021).

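Primary screen of methionyl-tRNA synthetase; the read-out is not stated. Target: Methionyl-tRNA synthetase (putative), Leishmania donovani (UniProt E9BF75). The test concentration is not given. The values are filed as inhibition. Size under these conditions: about 68,000 compounds, about 24 of them at 50% or above in at least one test.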

All values are in %. How 0% and 100% were set is not recorded. Most values in the screen are low, and negative values occur. Compounds were drawn at random from those tested, without regard to their results.

Compound: CCN(Cc1cccc(F)c1)c1ccc2nnnn2n1
inhibition: -1.381%

Compound: O=C(NCc1ccco1)Nc1ccc2nc(N3CCOCC3)oc2c1
inhibition: 5.903%

Compound: Cc1cc(C)n(CC2CCCN2C(=O)c2ccnc(N(C)C)c2)n1 (centres unmarked)
inhibition: 12.15%

Compound: CCOCC(O)CN1CCN(C(=O)C(C)(C)CC)CC1 (centres unmarked)
inhibition: 10.12%

Compound: CN(C)C(=O)N1CC[C@@H](O)[C@@H]1Cc1cnn(C)c1
inhibition: 14.89%

Compound: CN(Cc1ccc(F)cc1)CC1(O)CCN(C(=O)c2cccs2)C1 (centres unmarked)
inhibition: 12.43%

Compound: CC(C)N1CCCC(c2cc(C(F)(F)F)nc3nccn23)C1 (centres unmarked)
inhibition: 22.33%

Compound: CCC(=O)N1CCN(C(=O)CCn2cc(Cl)cn2)[C@H]2CS(=O)(=O)C[C@H]21
inhibition: 15.35%

Compound: O=C(NCc1nn(-c2ccccc2)c2c1CCC2)NC1CCOCC1
inhibition: 21.05%

Compound: O=C(N1CCOCC(O)C1)C1(c2ccc(Cl)cc2)CCC1 (centres unmarked)
inhibition: 123%

Compound: COc1cccc2c1ccn2CCC(=O)N1CCCC(C(=O)O)C1 (centres unmarked)
inhibition: 1.408%

Compound: CN(C)CCOc1ccccc1N1CCN(C(=O)c2ccoc2)CC1
inhibition: 18.55%

Compound: Cc1cc(C)nc(N2CCC(C(=O)Nc3n[nH]c(C(C)C)n3)CC2)n1
inhibition: 14.87%

Compound: Cc1cc(C)n(CC(C)NC2CCN(Cc3cccnc3)CC2)n1 (centres unmarked)
inhibition: 15.64%

Compound: O=C(c1cccs1)N1CCc2nnc(COc3cncnc3)n2CC1
inhibition: 6.62%

Compound: COc1cccc(-c2n[nH]cc2C(=O)NC(C)CC(=O)O)c1 (centres unmarked)
inhibition: 6.774%

Compound: O=C(CCc1ccco1)NCC1CCCN1c1cccnn1 (centres unmarked)
inhibition: 13.01%

Compound: c1ccc(Cc2noc(CN3CCCC3Cn3cccn3)n2)cc1 (centres unmarked)
inhibition: 16.81%

Compound: O=C(NCCc1ccccc1)C1CCC(Cn2cnnn2)CC1 (centres unmarked)
inhibition: 8.714%

Compound: Cc1cc(-n2cncn2)n2ncnc2n1
inhibition: 11.62%

Compound: Cc1ccc(-c2csc(N)c2C#N)cc1
inhibition: 6.224%

Compound: COc1ccc(-c2cnc3n2CCNC32CCN(S(C)(=O)=O)CC2)cc1
inhibition: 11.96%

Compound: CC(C)[C@@H]1CN(Cc2cnc(C3CCCCC3)nc2)C[C@H]1N(C)C
inhibition: -3.495%

Compound: COCCN1CCC2(CC1)CC(NCc1ccc(C)s1)c1ccccc12 (centres unmarked)
inhibition: 16.1%

Compound: CN(CCCc1cnn(C)c1)C(=O)Nc1cccc2[nH]nnc12
inhibition: 7.945%

Compound: CC(Cn1cccn1)NCc1nc(-c2cccnc2)no1 (centres unmarked)
inhibition: 12.75%

Compound: Cc1ccc(C(=O)N2CC[C@@H](N(C)C)[C@@H]2Cc2cnn(C)c2)cn1
inhibition: 10.95%

Compound: O=C1NCCCc2[nH]c(C3CCCN(C(=O)C4CC4)C3)nc21 (centres unmarked)
inhibition: 10.74%

Compound: CCc1cc(C(F)(F)F)n2nc(C3CCCN3C(=O)COC)cc2n1 (centres unmarked)
inhibition: 14.6%

Compound: Cc1cc(O)nc(C2CN(CC3(O)CCOCC3)CCO2)n1 (centres unmarked)
inhibition: 3.871%

Compound: COc1cccc2c(=O)n(C3CCCNC3)cnc12 (centres unmarked)
inhibition: 14.23%

Compound: NC(=O)c1nc(CC(=O)Nc2cccc(C(F)(F)F)c2)no1
inhibition: -8.009%

Compound: O=C(NC1CCN(C2CC2)CC1)NC1CCOc2ccc(Br)cc21 (centres unmarked)
inhibition: 6.593%

Compound: COCCNC(=O)C1CN(Cc2ccsc2)Cc2ccnn2C1 (centres unmarked)
inhibition: 14.19%

Compound: CN1CCN(Cc2cccnc2)C2(CCN(Cc3ccoc3)C2)C1=O (centres unmarked)
inhibition: 15.05%

Compound: Cc1nc(C)n(CC2CCCN(Cc3nnc(C(C)(C)C)o3)C2)n1 (centres unmarked)
inhibition: 11.27%

Compound: COc1cc(C)c(CN2CCC3(CC2)C(C(=O)O)CC(=O)N3C)cc1C (centres unmarked)
inhibition: 11.71%

Compound: CC(C)c1nn(C)c(N(C)C)c1CNCC(O)c1ccccc1 (centres unmarked)
inhibition: 21.94%

Compound: CN(CCCNC(=O)N1CCCC1c1ccsc1)c1ccccn1 (centres unmarked)
inhibition: 0.4049%

Compound: CCCN(CC1COc2ccccc2O1)C(=O)CCN1C(=O)CCC1=O (centres unmarked)
inhibition: 6.835%

Compound: CCc1nnc2n1CCN(C(=O)c1cc3ccccc3[nH]1)C2
inhibition: 12.82%

Compound: CCS(=O)(=O)N1CCOC2(COCCN(C(C)=O)C2)C1 (centres unmarked)
inhibition: 4.71%

Compound: CCc1ccc(C(=O)Nc2cccc(CN3CCCC3C(N)=O)c2)cc1 (centres unmarked)
inhibition: 3.714%

Compound: O=C(c1cc(C2CCCCC2)no1)N1C[C@H]2C[C@H](O)C[C@H]2C1
inhibition: 12.6%

Compound: NC(=O)CCNCc1c(Cl)cccc1N1CCCC1
inhibition: 8.043%

Compound: Cc1noc(C)c1C(=O)N[C@@H]1CCC[C@@H](Oc2ccccc2)[C@@H]1O
inhibition: 11.63%

Compound: CCN(Cc1ccco1)C(=O)NCc1nnc2n1CCC2
inhibition: 12.68%

Compound: O=C([C@@H]1C[C@@H]2CCN(C3CCOCC3)C[C@H]2O1)N1CCOCC1
inhibition: 4.569%

Compound: Cn1cnnc1C1CCCN(C(=O)NCc2ccccc2)C1 (centres unmarked)
inhibition: 1.567%

Compound: COc1cc(NC(=O)c2ccc(F)cc2Cl)c(C(=O)N(C)C)cc1OC
inhibition: 6.366%

Compound: O=S(=O)(NCCn1ccc(-c2ccccn2)n1)C1CCCCC1
inhibition: 7.726%

Compound: O=C1CNc2ncnc(N3CCN(Cc4cccc(F)c4)CC3)c2N1
inhibition: 10.48%

Compound: CC(C)(C)C(=O)N1CCC(c2cnc(-c3cn[nH]c3)cn2)CC1
inhibition: 4.651%

Compound: Cc1ccc(S(=O)(=O)N2CCc3nc(C4CCNCC4)ncc3C2)cc1
inhibition: 29.79%

Compound: COC1CN(C(=O)CC2CCCC2)CCC(=O)N(C)c2ccccc21 (centres unmarked)
inhibition: 8.493%

Compound: Cc1nn(C)c(Cl)c1C1CCCN1CC(=O)NCc1ccco1 (centres unmarked)
inhibition: 21.65%

Compound: CC(C)(C)OC(=O)Cn1cccc(S(=O)(=O)N2CCCCCC2)c1=O
inhibition: 7.343%

Compound: O=C(NCC(=O)N1CCCCC1)c1ccoc1
inhibition: 4.53%